According to article PMC10835002:
No constants are given. Whether binding was seen depends on the method and setting. Binding seen in cells or lysates may run through a third protein.

Target: Flag-tagged BZW2 with a W2 domain deletion (human)
Experiment: co-IP; Flag-tagged protein expressed in HEK293; lysis in 1% NP40, 25 mM Tris-HCl pH 7.4, 150 mM NaCl, 10% glycerol; anti-FLAG M2 affinity gel, three washes with 0.2% NP40 buffer; partners detected by Western blot

- binding: no binding
B1: BCAP31 (protein, UniProt P51572 1-246)
chain: MSLQWTAVATFLYAEVFVVLLLCIPFISPKRWQKIFKSRLVELLVSYGNTFFVVLIVILVLLVIDAVREIRKYDDVTEKVNLQNNPGAMEHFHMKLFRAQRNLYIAGFSLLLSFLLRRLVTLISQQATLLASNEAFKKQAESASEAAKKYMEENDQLKKGAAVDGGKLDVGNAEVKLEEENRSLKADLQKLKDELASTKQKLEKAENQVLAMRKQSEGLTKEYDRLLEEHAKLQAAVDGPMDKKEE
